From patent publication US10053725B2, “In situ interaction determination” (President and Fellows of Harvard College, priority 2013, dated 2018)
Some results were stated once for a whole list of compounds, not compound by compound.

Chains of the proteins cited; added tags and fusions are not shown. Residues count along the entry.
UniProt Q07817, 1-212: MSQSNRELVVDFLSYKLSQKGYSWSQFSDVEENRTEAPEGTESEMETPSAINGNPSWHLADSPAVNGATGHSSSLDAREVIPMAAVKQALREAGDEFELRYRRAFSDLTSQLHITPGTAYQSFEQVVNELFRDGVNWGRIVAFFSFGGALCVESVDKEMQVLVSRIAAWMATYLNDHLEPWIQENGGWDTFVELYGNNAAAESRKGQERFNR

Columns and labels:
Assay type in all cases: binding
[1] = target: T1, SNAP-Bcl-xL or Bcl-xL-SNAP (Homo sapiens, UniProt Q07817); assay: ISID in 293T cell lysate expressing SNAP-tagged Bcl-xL
T1 construct: His6-Bcl-xL (truncated C-terminus, amino acids 1 to 212); expressed in transfected cells; host or cells: HEK-293T (lysate)

[2] = target: T2, carbonic anhydrase II (CAII) (Homo sapiens, UniProt P00918, S2A); assay: Antibody-mediated ISID with DNA-αCAII and CAII in HeLa lysate; settings: 0.01% CAII and DNA-αCAII in HeLa lysate; vs desthiobiotin or amine
T2 construct: made in house; host or cells: E. coli BL21(DE3), pACA plasmid
Procedure: In cases where recombinant SA or CAII was added to HeLa lysate at 0.01% wt, the protein content of the HeLa cell lysate was first estimated using the Modified Lowry Assay Kit (Thermo Scientific). HeLa cell lysate replaced water in the primer extension reaction mixture, and was added in volumes of 5.7-8.5 μL, with a maximum weight of 60 μg total protein added.

CAII-His6 = target: T3, CAII-His6 (Homo sapiens, UniProt P00918); assay: ISID with DNA-αHis and His6-tagged CAII; settings: 293T cell lysate expressing CAII-His6; vs desthiobiotin
T3 construct: expressed in transfected cells; host or cells: HEK-293T (lysate)

SNAP-CAII or CAII-SNAP = target: T4, SNAP-CAII or CAII-SNAP (Homo sapiens, UniProt P00918, S2A); assay: ISID in 293T cell lysate expressing SNAP-tagged CAII
T4 construct: expressed in transfected cells; host or cells: HEK-293T (lysate)

## Bad: Bad BH3 peptide (103-127) (Anaspec)
[1]; SNAP-Bcl-xL or Bcl-xL-SNAP, vs SNAP alone or DNA-linked BakL78A
  ΔCT: 7-8 cycles
[1]; cell lysate expressing SNAP/Bcl-xL
  ΔCT: 8-9

## Gly-Leu-CBS [GLCBS]
[2]
  ΔCT: 4-5
CAII-His6
  ΔCT: 5-6
SNAP-CAII or CAII-SNAP
  ΔCT: 5-6
